Results are given in words; binding and its absence hold for the method and conditions named. Binding seen in cells or lysates may run through a third protein. Some results given as binding are weak or reduced against the parent protein; the word gives no strength. For part of these data: Where a sequence is shown, tags or fusion partners need not be part of it. Each block holds one molecule with its values, some of them ahead of it.
Assays:
Flag-tagged USP13 (WT) = biological target: T1, Flag-tagged USP13 (WT) (UniProt Q92995); test: co-IP; HEK 293T cells transfected with Flag-tagged USP13 and Myc-tagged IκBα plasmids; RIPA lysate, immunoprecipitation with specific antibodies and protein A/G plus-agarose at 4 °C overnight, immunoblot
T1 sequence: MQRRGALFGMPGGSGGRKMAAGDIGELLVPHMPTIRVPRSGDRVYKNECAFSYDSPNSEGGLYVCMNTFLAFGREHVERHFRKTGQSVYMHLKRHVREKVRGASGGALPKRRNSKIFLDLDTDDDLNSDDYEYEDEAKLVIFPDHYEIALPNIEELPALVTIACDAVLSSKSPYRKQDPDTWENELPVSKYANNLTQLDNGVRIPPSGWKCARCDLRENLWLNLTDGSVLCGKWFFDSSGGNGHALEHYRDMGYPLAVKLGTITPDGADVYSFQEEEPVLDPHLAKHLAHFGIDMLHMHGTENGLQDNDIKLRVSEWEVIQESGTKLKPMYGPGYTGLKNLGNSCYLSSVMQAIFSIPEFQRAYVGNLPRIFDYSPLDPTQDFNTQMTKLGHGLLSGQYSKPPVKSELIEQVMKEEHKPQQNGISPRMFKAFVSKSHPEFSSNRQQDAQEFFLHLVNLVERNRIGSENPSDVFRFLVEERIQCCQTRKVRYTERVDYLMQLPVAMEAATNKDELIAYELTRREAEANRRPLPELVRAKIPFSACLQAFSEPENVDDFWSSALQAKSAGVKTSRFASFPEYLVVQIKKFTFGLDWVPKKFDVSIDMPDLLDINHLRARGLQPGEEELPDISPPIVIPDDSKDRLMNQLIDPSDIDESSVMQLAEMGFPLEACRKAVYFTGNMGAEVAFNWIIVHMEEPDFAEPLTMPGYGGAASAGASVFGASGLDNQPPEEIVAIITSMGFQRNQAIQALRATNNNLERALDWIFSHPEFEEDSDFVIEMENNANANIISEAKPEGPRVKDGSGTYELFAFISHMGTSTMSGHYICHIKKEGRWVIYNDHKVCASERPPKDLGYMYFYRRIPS

Chains of the proteins cited; added tags and fusions are not shown.
UniProt Q9Z1E3: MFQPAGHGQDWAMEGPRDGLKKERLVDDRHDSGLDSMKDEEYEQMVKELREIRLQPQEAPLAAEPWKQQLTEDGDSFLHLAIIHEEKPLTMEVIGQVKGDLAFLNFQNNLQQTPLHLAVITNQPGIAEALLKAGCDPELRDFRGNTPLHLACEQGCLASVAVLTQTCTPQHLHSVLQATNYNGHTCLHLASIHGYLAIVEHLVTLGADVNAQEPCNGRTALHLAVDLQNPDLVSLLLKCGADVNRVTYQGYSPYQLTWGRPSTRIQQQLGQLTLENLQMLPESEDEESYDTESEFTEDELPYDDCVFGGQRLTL
UniProt P25963: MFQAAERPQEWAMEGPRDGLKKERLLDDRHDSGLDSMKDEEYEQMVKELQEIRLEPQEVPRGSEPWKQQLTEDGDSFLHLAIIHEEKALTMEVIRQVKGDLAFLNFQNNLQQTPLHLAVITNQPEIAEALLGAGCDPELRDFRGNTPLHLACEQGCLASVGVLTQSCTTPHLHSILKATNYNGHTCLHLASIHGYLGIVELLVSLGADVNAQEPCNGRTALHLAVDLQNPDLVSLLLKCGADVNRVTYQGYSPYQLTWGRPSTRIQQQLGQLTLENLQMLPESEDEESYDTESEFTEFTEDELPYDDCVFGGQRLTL

[1] = biological target: T2, Ubiquitin-specific protease 13 (USP13), endogenous in BV2 microglia (mouse (endogenous in BV2)) (UniProt Q5BKP2); test: co-IP; endogenous proteins in BV2 microglia; RIPA lysate, precleared with control IgG and protein A/G plus-agarose, immunoprecipitated with USP13 or IκBα antibody at 4 °C overnight, washed five times, immunoblot
T2 sequence: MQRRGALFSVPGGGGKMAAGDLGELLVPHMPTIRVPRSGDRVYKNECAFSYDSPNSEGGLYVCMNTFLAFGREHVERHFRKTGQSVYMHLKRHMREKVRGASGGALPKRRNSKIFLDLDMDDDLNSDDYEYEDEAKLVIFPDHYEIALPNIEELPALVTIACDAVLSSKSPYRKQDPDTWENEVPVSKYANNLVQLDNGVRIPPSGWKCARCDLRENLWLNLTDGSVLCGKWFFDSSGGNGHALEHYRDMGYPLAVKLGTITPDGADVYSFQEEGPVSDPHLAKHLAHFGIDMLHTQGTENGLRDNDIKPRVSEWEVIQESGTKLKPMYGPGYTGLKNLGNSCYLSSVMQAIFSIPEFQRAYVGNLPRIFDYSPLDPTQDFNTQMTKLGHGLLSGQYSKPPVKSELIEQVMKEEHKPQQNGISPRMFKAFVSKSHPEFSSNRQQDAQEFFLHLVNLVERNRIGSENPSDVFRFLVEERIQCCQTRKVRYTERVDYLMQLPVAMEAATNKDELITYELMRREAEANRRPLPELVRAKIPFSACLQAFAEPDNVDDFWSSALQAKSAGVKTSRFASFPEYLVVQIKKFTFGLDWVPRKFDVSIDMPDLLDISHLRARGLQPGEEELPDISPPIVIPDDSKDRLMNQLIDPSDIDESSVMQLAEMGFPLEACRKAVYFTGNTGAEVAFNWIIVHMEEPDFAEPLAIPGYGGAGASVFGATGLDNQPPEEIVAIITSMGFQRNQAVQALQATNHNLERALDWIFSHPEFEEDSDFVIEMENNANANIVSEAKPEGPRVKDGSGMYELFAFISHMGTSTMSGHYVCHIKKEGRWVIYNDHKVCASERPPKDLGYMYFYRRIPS

[2] = biological target: NF-κB inhibitor alpha (IκBα), endogenous in BV2 microglia (mouse (endogenous in BV2)) (UniProt Q9Z1E3); test: as above

binding (Flag-tagged USP13 (WT)): binds
Molecule: Myc-tagged IκBα (from UniProt P25963 1-317)

binding [1]: binds
Molecule: NF-κB inhibitor alpha (IκBα), endogenous in BV2 microglia (from UniProt Q9Z1E3 1-314)

binding [2]: binds
B1: Ubiquitin-specific protease 13 (USP13), endogenous in BV2 microglia (enzyme, UniProt Q5BKP2 1-858)
chain: MQRRGALFSVPGGGGKMAAGDLGELLVPHMPTIRVPRSGDRVYKNECAFSYDSPNSEGGLYVCMNTFLAFGREHVERHFRKTGQSVYMHLKRHMREKVRGASGGALPKRRNSKIFLDLDMDDDLNSDDYEYEDEAKLVIFPDHYEIALPNIEELPALVTIACDAVLSSKSPYRKQDPDTWENEVPVSKYANNLVQLDNGVRIPPSGWKCARCDLRENLWLNLTDGSVLCGKWFFDSSGGNGHALEHYRDMGYPLAVKLGTITPDGADVYSFQEEGPVSDPHLAKHLAHFGIDMLHTQGTENGLRDNDIKPRVSEWEVIQESGTKLKPMYGPGYTGLKNLGNSCYLSSVMQAIFSIPEFQRAYVGNLPRIFDYSPLDPTQDFNTQMTKLGHGLLSGQYSKPPVKSELIEQVMKEEHKPQQNGISPRMFKAFVSKSHPEFSSNRQQDAQEFFLHLVNLVERNRIGSENPSDVFRFLVEERIQCCQTRKVRYTERVDYLMQLPVAMEAATNKDELITYELMRREAEANRRPLPELVRAKIPFSACLQAFAEPDNVDDFWSSALQAKSAGVKTSRFASFPEYLVVQIKKFTFGLDWVPRKFDVSIDMPDLLDISHLRARGLQPGEEELPDISPPIVIPDDSKDRLMNQLIDPSDIDESSVMQLAEMGFPLEACRKAVYFTGNTGAEVAFNWIIVHMEEPDFAEPLAIPGYGGAGASVFGATGLDNQPPEEIVAIITSMGFQRNQAVQALQATNHNLERALDWIFSHPEFEEDSDFVIEMENNANANIVSEAKPEGPRVKDGSGMYELFAFISHMGTSTMSGHYVCHIKKEGRWVIYNDHKVCASERPPKDLGYMYFYRRIPS

From publication PMC10012460
